Assay results taken from paper PMC3297495.
Residue numbers refer to the chain shown, from its start. These are yes or no findings as the source states them, for the method shown. For some of these results: Binding seen in cells or lysates may run through a third protein. Some entries that bind do so weakly or less than the wild type.

T1: LexA:NH1 (rice (Oryza sativa L)) (UniProt Q9FDY4)
T1 sequence: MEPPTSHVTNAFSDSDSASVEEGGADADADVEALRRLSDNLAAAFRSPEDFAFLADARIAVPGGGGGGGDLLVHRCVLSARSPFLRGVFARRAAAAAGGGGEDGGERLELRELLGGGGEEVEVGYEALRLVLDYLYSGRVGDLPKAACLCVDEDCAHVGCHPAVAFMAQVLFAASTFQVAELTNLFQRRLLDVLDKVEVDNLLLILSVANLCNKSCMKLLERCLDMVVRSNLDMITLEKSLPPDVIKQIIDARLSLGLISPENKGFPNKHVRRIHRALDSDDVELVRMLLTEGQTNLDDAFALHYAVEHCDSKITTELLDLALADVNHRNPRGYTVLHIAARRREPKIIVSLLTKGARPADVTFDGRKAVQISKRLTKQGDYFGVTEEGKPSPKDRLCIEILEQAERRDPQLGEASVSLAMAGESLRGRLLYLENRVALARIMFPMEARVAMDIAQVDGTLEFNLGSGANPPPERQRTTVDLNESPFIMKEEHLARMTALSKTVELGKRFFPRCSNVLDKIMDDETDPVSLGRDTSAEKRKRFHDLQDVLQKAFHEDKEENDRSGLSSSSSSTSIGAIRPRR

T2: YN:NH1 (rice (Oryza sativa L)) (UniProt Q9FDY4)
T2 sequence: T1 sequence

B1: B42AD:NRR (protein, UniProt Q5ZEF1 1-127)
chain: MDATTTAKRKRPAASDIADDAPTTVDEVSDAEVEEFYAILRRMRDATRRLGARPPPPRAPAWRPSFSWEDFADAPPKQAPPPPQQPADHERVAENATPPRRPAPGLDLNVEPPSDAPATPRSARAPA
B2: YC:DL (protein, UniProt Q5ZEF1 1-127)
chain: B1 chain with D107A, L108A
B3: B42AD:W66 (protein, UniProt Q5ZEF1 1-127)
chain: B1 chain with W62A
B4: YC:NRR (protein, UniProt Q5ZEF1 1-127)
chain: B1 chain

Legend:
[1] = target: T1, LexA:NH1 (rice (Oryza sativa L)); experiment: two-hybrid; yeast; NH1 fused to LexA as bait, NRR, its mutants and homologues fused to B42AD as prey; blue colour indicates a positive interaction
[2] = target: T2, YN:NH1 (rice (Oryza sativa L)); experiment: split reporter; split YFP in rice protoplasts; YN:NH1 co-expressed transiently with YC fusions; fluorescence observed semi-quantitatively under a microscope 24-36 h after transfection

Binder	binding [1]	binding [2]
B1	binds	
B2		binds
B3	binds	
B4		binds
